# Data reported in publication PMC4002904.
# T1: endogenous microsomal epoxide hydrolase (mEH) of Huh-7 hepatoma cells (human (endogenous in Huh-7)) (UniProt P07099)
# T1 sequence: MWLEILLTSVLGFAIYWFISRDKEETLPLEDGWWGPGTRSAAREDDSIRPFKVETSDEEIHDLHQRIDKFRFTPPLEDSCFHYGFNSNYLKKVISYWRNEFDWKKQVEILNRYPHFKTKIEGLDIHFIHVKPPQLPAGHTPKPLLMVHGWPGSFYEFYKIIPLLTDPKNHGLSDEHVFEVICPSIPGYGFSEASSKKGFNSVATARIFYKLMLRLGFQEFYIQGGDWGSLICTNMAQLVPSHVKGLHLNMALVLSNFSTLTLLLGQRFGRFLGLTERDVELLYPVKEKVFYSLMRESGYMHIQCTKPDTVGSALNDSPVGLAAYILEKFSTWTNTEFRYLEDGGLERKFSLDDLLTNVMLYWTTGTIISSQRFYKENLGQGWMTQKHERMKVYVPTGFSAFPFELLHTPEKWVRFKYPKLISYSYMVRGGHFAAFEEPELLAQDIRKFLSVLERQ
# B1: 35S-labeled microsomal epoxide hydrolase (mEH) (enzyme, UniProt P07099 1-455)
# chain: T1 sequence
# modifications: 35S-methionine label
# B2: VP16-tagged mEH 353-455 (domain or fragment, UniProt P07099 353-455)
# chain: DLLTNVMLYWTTGTIISSQRFYKENLGQGWMTQKHERMKVYVPTGFSAFPFELLHTPEKWVRFKYPKLISYSYMVRGGHFAAFEEPELLAQDIRKFLSVLERQ
# Assays:
# [1] = biological target: T1, endogenous microsomal epoxide hydrolase (mEH) of Huh-7 hepatoma cells (human (endogenous in Huh-7)); assay: co-IP; Huh-7 cells transfected with pBIND constructs, RIPA lysate after 48 h; precipitated with goat polyclonal anti-mEH IgG and protein A agarose; blot with anti-GAL4BD and anti-mEH
# [2] = biological target: GST-HBSP fusion protein (hepatitis B spliced protein) (Hepatitis B virus); assay: pull-down; GST-HBSP held on glutathione-Sepharose 4B beads; 35S-labeled mEH from reticulocyte lysate added, overnight at 4°C; washed three times with 1% Triton X-100 in PBS; SDS-PAGE and autoradiography; only the target purified
# [3] = biological target: GAL4 DNA-binding domain fused C terminal 64 amino acids of HBSP (Hepatitis B virus); assay: two-hybrid; CheckMate mammalian two-hybrid in Huh-7 cells; pACT-EPHX1(353-455) with pBIND constructs and pG5luc reporter; renilla-normalised firefly luciferase at 48 h, relative to pBIND + pACT set to 1
Molecule,binding [1],other results
GAL4 DNA-binding domain fused C terminal 64 amino acids of HBSP (Hepatitis B virus) (domain or fragment),no binding,–
GAL4 DNA-binding domain fused N terminal 47 amino acids of HBSP (Hepatitis B virus) (domain or fragment),binds,–
GAL4 DNA-binding domain fused full-length HBSP (Hepatitis B virus),binds,–
B1,–,binding [2]: binds
B2,–,binding [3]: no binding

# These are yes or no findings as the source states them, for the method shown. For some assays here: Binding seen in cells or lysates may run through a third protein. For some assays here: Binding calls can cover weak binding; strength is not graded here. For some assays here: Tags and fused reporters may be left off the sequences shown.
